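Enzyme assay of CoaBC with a phosphate dye (Biomol Green) read at 650 nm. Target: Coenzyme A biosynthesis protein CoaBC, Mycobacterium tuberculosis (UniProt P9WNZ1). Concentration: 30 µM. Direction is inferred from only a few compounds that gave an IC50; most scored high, so higher reads as stronger inhibition. Most strong results did not repeat in a second test. Size under these conditions: about 67,000 compounds, about 40 of them at 50% or above in at least one test.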

The chains behind the UniProt entries cited, without tags or fusion partners.
UniProt P9WNZ1, whole entry: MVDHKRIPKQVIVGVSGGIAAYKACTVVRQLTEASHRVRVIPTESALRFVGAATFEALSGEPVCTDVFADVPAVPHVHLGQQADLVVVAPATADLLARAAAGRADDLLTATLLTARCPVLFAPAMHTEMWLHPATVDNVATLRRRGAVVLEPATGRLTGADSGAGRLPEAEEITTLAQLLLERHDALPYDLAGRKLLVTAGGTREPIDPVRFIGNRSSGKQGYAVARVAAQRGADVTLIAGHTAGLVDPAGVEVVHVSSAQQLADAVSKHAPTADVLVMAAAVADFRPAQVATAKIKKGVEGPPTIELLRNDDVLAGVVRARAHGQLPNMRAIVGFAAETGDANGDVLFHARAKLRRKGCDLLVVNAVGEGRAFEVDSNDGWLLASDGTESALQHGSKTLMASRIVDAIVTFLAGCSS

Each number is a percent effect as filed. The record does not define 0% and 100%; most values in the screen are far below 50% and negative numbers occur (in some assays of this library far below -100). The compounds are a random part of those screened.

{"smiles": "CCCC(=O)N1CC[C@@H]2[C@H](CC1)N(Cc1cccnc1)CCS2(=O)=O", "effect": 5.176}
{"smiles": "CN(C)S(=O)(=O)N(Cc1cscn1)c1ccccc1", "effect": 12.85}
{"smiles": "CC(c1cc(F)ccc1F)N(C)Cc1nc2c(cnn2C)c(=O)[nH]1", "stereo": "stereo unspecified", "effect": 5.106}
{"smiles": "CCN(CC1CCCO1)C(=O)Nc1cc(C(N)=O)ccc1OC", "stereo": "stereo unspecified", "effect": 5.921}
{"smiles": "Cc1nc(CN2CCCCC2CCc2ccc(O)cc2)no1", "stereo": "stereo unspecified", "effect": 11.68}
{"smiles": "Cc1c(C(=O)NCCN2C(=O)CCC2=O)sc2ccc(F)cc12", "effect": -0.8092}
{"smiles": "Cn1ccnc1CN(CCCO)C1CCCc2ccccc21", "stereo": "stereo unspecified", "effect": -6.343}
{"smiles": "O=C(NCCN1CCCCCC1=O)Nc1cccnc1-n1cccn1", "effect": 4.373}
{"smiles": "COc1ncccc1C(=O)NCCn1cnc(C)cc1=O", "effect": 4.97}
{"smiles": "COCCN1CCc2c(cnc(-c3ccoc3)c2C(=O)O)C1", "effect": 0.8403}
{"smiles": "Cc1cc(N2CCCC(N(C)C)C2)n2nccc2n1", "stereo": "stereo unspecified", "effect": -0.4866}
{"smiles": "N#Cc1ccc(NCCS(=O)(=O)N2CCc3ccccc32)nc1", "effect": 3.502}
{"smiles": "COCCC1COC2(CCN(C(=O)C3CCCC3)CC2)C1", "stereo": "stereo unspecified", "effect": -1.426}
{"smiles": "CCCOCC(=O)NC1CCc2nc(C)cn2C1", "stereo": "stereo unspecified", "effect": 1.215}
{"smiles": "COC(=O)COn1c(OC)nc2ccccc2c1=O", "effect": 0.7595}
{"smiles": "CC(C)OCc1ccc(CNC(=O)CC(F)(F)F)cc1", "effect": 9.516}
{"smiles": "Cc1nc(CN(C)Cc2cnc(N3CCOCC3)s2)no1", "effect": 1.235}
{"smiles": "CN(Cc1ccccc1)C(=O)CN1CCCC1c1cnn(C)c1", "stereo": "stereo unspecified", "effect": 5.623}
{"smiles": "O=C1NCC2(CCCN(CCc3ccccc3)C2)Oc2ccccc21", "stereo": "stereo unspecified", "effect": 6.389}
{"smiles": "N#CC1(c2ccccc2)CCN(C(=O)CN2C(=O)CCNC2=O)CC1", "effect": 9.917}
{"smiles": "CC(C)c1cc(C(=O)NCCn2nc3ccccn3c2=O)n[nH]1", "effect": 5.263}
{"smiles": "CN(C)c1nc(-c2ccncc2)nc2c1CCN(C(=O)[C@H](N)CO)C2", "effect": 3.1}
{"smiles": "O=S(=O)(c1ccc(Cl)cc1)N1CCN(CCCn2ccnc2)CC1", "effect": -9.871}
{"smiles": "Cc1nn(C)c(C)c1C(C(=O)O)N1CCc2ccccc2C1", "stereo": "stereo unspecified", "effect": -0.4016}
{"smiles": "CCN(CC)c1nc(C)cc(C(=O)Nc2cnn(CC)c2)n1", "effect": 2.169}
{"smiles": "Cc1nnc(N2C[C@@H](Oc3ccccn3)[C@H]3OCCC[C@H]32)s1", "effect": 16.31}
{"smiles": "CC(C)n1cnnc1CCNCc1cn(CCC(N)=O)c2ccccc12", "effect": -3.171}
{"smiles": "Cc1nc(N)sc1C(=O)N[C@H]1CN(CCO)C[C@@H]1C1CC1", "effect": -2.675}
{"smiles": "CC[C@H](C)[C@H](N)C(=O)Nc1nc(-c2cnc(N(C)C)nc2)cs1", "effect": 2.048}
{"smiles": "Cc1cc(CN2C[C@H]3CC[C@@H]2CN(C2Cc4ccccc4C2)C3)on1", "effect": -11.68}
{"smiles": "Cc1csc(Nc2cc(C3CN(C(C)C)C3)nc(C)n2)n1", "effect": -5.34}
{"smiles": "COC(=O)c1ccc(CNC2CC(=O)N(Cc3cccc(F)c3)C2)cc1", "stereo": "stereo unspecified", "effect": 5.263}
{"smiles": "O=S(=O)(NCCn1cc(C2CCOC2)nn1)c1ccc(Cl)cc1", "stereo": "stereo unspecified", "effect": 0.9804}
{"smiles": "CC(NC(=O)Cn1ccc(=O)n(C)c1=O)c1ccccc1F", "stereo": "stereo unspecified", "effect": -34.05}
{"smiles": "Cn1nc(C(=O)NC2(c3ccc(Cl)cc3)CCCC2)ccc1=O", "effect": -16.67}
{"smiles": "O=C(CN1CCOC(Cn2cccn2)C1)Nc1nccs1", "stereo": "stereo unspecified", "effect": 7.083}
{"smiles": "Clc1ccc(N2CCN(CCCN3CCCCC3)CC2)nc1", "effect": -15.12}
{"smiles": "COCCNC(=O)c1sc2ccccc2c1C1CCC(CN)CC1", "stereo": "stereo unspecified", "effect": 3.088}
{"smiles": "CC(C)C1CN(C(=O)c2cc(=O)[nH]c(=O)[nH]2)CCC(=O)N1CC1CC1", "stereo": "stereo unspecified", "effect": 6.813}
{"smiles": "O=C(NCc1cnn2ccccc12)NC1CCCC1", "effect": -2.484}
{"smiles": "CCS(=O)(=O)N1CCN(C(=O)C(C)C)CC2(CC(=O)N(C)C2)C1", "stereo": "stereo unspecified", "effect": 0.2037}
{"smiles": "COc1cccc(CCC2CCCCN2)c1", "stereo": "stereo unspecified", "effect": -6.651}
{"smiles": "CCOc1ccccc1OCC(=O)NCc1ncc(C)c(OC)c1C", "effect": -2.206}
{"smiles": "CCc1nc2n(n1)CC(NCc1cnc(N(CC)CC)s1)CC2", "stereo": "stereo unspecified", "effect": 4.911}
{"smiles": "CCc1ncncc1C(=O)N1CCN(Cc2cscn2)CC1", "effect": 4.981}

The first 2 entries again:

* CCCC(=O)N1CC[C@@H]2[C@H](CC1)N(Cc1cccnc1)CCS2(=O)=O | 5.176%
* CN(C)S(=O)(=O)N(Cc1cscn1)c1ccccc1 | 12.85%

Source: ChEMBL document CHEMBL3988442, “University of Dundee, Small-Polar-MMV Screening Library” (2021).